# Test results published in PubChem BioAssay AID1381 (University of Pittsburgh Molecular Library Screening Center, 2008).
# The list shows a part of the results.
# Assay: inhibitors of GR-EGFP nuclear translocation, primary screen, dynein cargo transport inhibitor project, imaging, high-content, 3617.4 mouse cells (AID 1381)
# Details: stimulated with dexamethasone, 1 µM
# [1] = measured here: cell count per field, at 20 µM
# [2] = measured here: cytoplasmic GR-EGFP intensity, at 20 µM, stronger effect = higher value
# [3] = measured here: nuclear GR-EGFP intensity, at 20 µM, stronger effect = lower value
# [4] = measured here: cell count per field, at 50 µM
# [5] = measured here: cytoplasmic GR-EGFP intensity, at 50 µM, stronger effect = higher value
# [6] = measured here: nuclear GR-EGFP intensity, at 50 µM, stronger effect = lower value
SMILES,z-score [1],z-score [2],z-score [3],z-score [4],z-score [5],z-score [6]
Cc1ccc(NP(C)(=O)Oc2ccccc2)c(C)c1 (stereo not given),0.798,-0.29,0.287,–,–,–
CC(C)c1ccc(OP(=O)(Nc2ccccn2)Oc2ccccc2F)cc1 (stereo not given),1.11,-0.291,-0.254,–,–,–
CCN(CC)C(=S)SC(NC=O)C(Cl)(Cl)Cl (stereo not given),1.1,-0.14,-0.519,–,–,–
CC(C)NC(=O)NP(=O)(Oc1ccccc1)Oc1ccccc1,0.377,-0.359,0.049,–,–,–
COc1ccccc1OP(C)(=O)Nc1cc(Cl)ccc1C (stereo not given),0.0175,-0.213,0.269,–,–,–
O=[N+]([O-])c1cc([N+](=O)[O-])c(-c2ccn[nH]2)s1,-0.428,0.599,-0.683,–,–,–
COc1ccc(OP(C)(=O)Nc2cccc(F)c2)cc1 (stereo not given),0.433,-0.392,-0.215,–,–,–
Cc1cc(C)cc(OP(C)(N)=O)c1 (stereo not given),-0.791,-0.0694,0.925,–,–,–
O=[As](O)(c1ccc(O)cc1)c1ccccc1O,0.129,-0.29,0.143,–,–,–
C[As](=O)(O)c1cccc(C(=O)O)c1,-0.652,-0.228,0.654,–,–,–
CC(C)(C)c1ccc(OP(C)(=O)Nc2ccc(SC(F)(F)F)cc2)cc1 (stereo not given),1.13,-0.313,-0.905,–,–,–
Cc1ccc(OP(=O)(Nc2ccc([N+](=O)[O-])cn2)Oc2ccc(C)cc2)cc1,0.407,-0.127,-0.164,–,–,–
Cc1cccc(C)c1OP(C)(N)=O (stereo not given),-1.54,0.358,1.16,–,–,–
Cc1ccc2nc3c(c(C)c2c1)CC(C(Cl)Cl)S3 (stereo not given),-1.43,-0.207,0.791,–,–,–
O=[N+]([O-])c1ccc2c(c1)C=Nc1ccccc1O2,0.198,-0.161,-0.163,–,–,–
COc1ccc(N/C(=N/P(=O)(N2CCOCC2)N2CCOCC2)N2CCOCC2)cc1,0.337,-0.136,0.249,–,–,–
Cc1c2c(nc3ccccc13)SC(C(Cl)Cl)C2 (stereo not given),2.13,-0.262,-0.739,–,–,–
O=C(OC1CN2CCC1CC2)C12CC3CC(CC(C3)C1)C2 (stereo not given),-0.26,0.228,0.0443,–,–,–
Cc1cc(=O)[nH]c(N[N+](=O)[O-])n1,0.0689,-0.199,0.141,–,–,–
CCN(CC)CCCOC(=O)C(O)(c1ccccc1)c1ccccc1,1.19,-0.352,-0.647,–,–,–
COc1ccc2nc(NP(=O)(c3ccccc3)c3ccccc3)sc2c1,0.675,-0.213,-0.503,–,–,–
COc1cc(I)ccc1[As](=O)(O)O,-0.329,-0.231,0.0241,–,–,–
CCOP(C)(=S)SCC(=O)NC(C)C(=O)O (stereo not given),-0.281,-0.101,0.697,–,–,–

SMILES,z-score [1],z-score [2],z-score [3],z-score [4],z-score [5],z-score [6]
CCOC(=O)c1ccc(NP(C)(=O)Oc2ccc(OC)cc2)cc1 (stereo not given),0.0169,-0.244,0.0592,–,–,–
CCOC(=O)c1ccc(NC(=O)C(C)(CCl)SC)cc1 (stereo not given),0.488,-0.246,0.182,–,–,–
CCC(C)N(CC(C)C)C(=S)SC(NC(C)=O)C(Cl)(Cl)Cl (stereo not given),–,–,–,0.391,-0.244,-0.0895
CP(=O)(Nc1ccccn1)Oc1ccc(Cl)cc1 (stereo not given),–,–,–,0.693,-0.291,0.443
CP(=O)(Nc1ccc(SC(F)(F)F)cc1)Oc1ccc(Cl)cc1 (stereo not given),-2.36,-0.0829,0.834,–,–,–
Cc1cccc(C)c1OP(C)(=O)Nc1ccc(SC(F)(F)F)cc1 (stereo not given),-1.65,-0.152,0.912,–,–,–
COP1(=S)c2c(C)nn(CCC#N)c2N=C(c2ccc(F)cc2)N1C (stereo not given),–,–,–,-1.23,-0.0856,0.727
CP(=O)(Oc1ccccc1)OC(c1ccccc1)C(F)(F)F (stereo not given),-0.712,-0.301,0.743,–,–,–
CCc1ccc(OP(C)(=O)N2CCN(c3ccc([N+](=O)[O-])cc3)CC2)cc1 (stereo not given),1.3,-0.247,-0.158,–,–,–
CP(=O)(NC(=O)Nc1ccccc1)Oc1ccccc1 (stereo not given),0.557,-0.29,-0.536,–,–,–
O=C(COc1ccccc1)OC1CN2CCC1CC2 (stereo not given),2.95,-0.35,-0.222,–,–,–
Cc1cc(C)cc(OP(C)(=O)Nc2ccc(SC(F)(F)F)cc2)c1 (stereo not given),-3.02,-0.0341,1.91,–,–,–
CP(=S)(Nn1cnnc1)Oc1ccccc1 (stereo not given),–,–,–,-0.738,-0.22,-0.27
CCOC(=O)Nc1cccc([As](=O)(O)O)c1,-0.436,-0.201,0.307,–,–,–
Cc1cc(SC(NC=O)C(Cl)(Cl)Cl)ncn1 (stereo not given),0.852,-0.328,0.283,–,–,–
O=P(Nc1ccccn1)(c1cccc2ccccc12)c1cccc2ccccc12,-2.05,-0.314,1.74,–,–,–
COc1ccccc1OP(C)(=O)Nc1ccccc1 (stereo not given),-0.0872,-0.0256,0.249,–,–,–
CP(=O)(Nc1ccccc1Br)Oc1ccccc1 (stereo not given),-0.189,-0.304,-0.0636,–,–,–
O=[N+]([O-])c1ccc(Nc2ccc(Oc3ccc([N+](=O)[O-])cc3[N+](=O)[O-])cc2)c([N+](=O)[O-])c1,1.25,-0.0393,-1.08,–,–,–
CCOC(=O)Nc1ccc([As](=O)(O)O)c(O)c1,0.479,-0.297,0.0597,–,–,–
Cc1cc(SC(NC(=O)c2ccccc2)C(Cl)(Cl)Cl)nc(C(C)C)n1 (stereo not given),0.28,-0.022,-0.609,–,–,–
O=[N+]([O-])c1ncn(CCn2ncnc2[N+](=O)[O-])n1,0.838,-0.247,-0.291,–,–,–
CC(C)(C)C(=O)NC(Sc1ccncn1)C(Cl)(Cl)Cl (stereo not given),1.44,0.159,-0.13,–,–,–

SMILES,z-score [1],z-score [2],z-score [3],z-score [4],z-score [5],z-score [6]
O=C(O)CNc1ccc([As](=O)(O)O)cc1,0.0302,-0.177,-0.443,–,–,–
O=[N+]([O-])c1cccc(NC2=NCC(CBr)S2)c1 (stereo not given),0.371,0.131,0.336,–,–,–
CP(=O)(OC12CC3CC(CC(C3)C1)C2)OC12CC3CC(CC(C3)C1)C2,-0.781,-0.118,0.311,–,–,–
CCOC(=O)c1ccc(NP(C)(=O)Oc2ccc(Cl)cc2)cc1 (stereo not given),-0.0124,-0.275,-0.538,–,–,–
O=C(Nc1cc([As](=O)(O)O)ccc1O)c1ccccc1,0.398,-0.146,-0.589,–,–,–
CCN(/C(=N/P(=O)(N1CCOCC1)N1CCOCC1)N1CCOCC1)c1ccc(OC)cc1,-0.642,-0.189,0.664,–,–,–
CP(=O)(Nc1ccc(Cl)cc1)Oc1ccc(F)cc1 (stereo not given),–,–,–,1.2,-0.233,-1.3
Nc1ccc([As](=O)(O)c2ccc(N)cc2)cc1,-0.759,-0.247,0.372,–,–,–
CC(C)(C)c1ccc(OP(C)(=O)O)cc1,–,–,–,-0.251,-0.277,0.0172
COc1ccccc1OP(C)(=O)Nc1ccccc1Br (stereo not given),0.302,-0.214,0.132,–,–,–
C[N+]1=C2C=CC=CC=C2SC12C([N+](=O)[O-])=CC([N+](=O)[O-])=C[C-]2[N+](=O)[O-] (stereo not given),1.95,-0.198,-0.464,–,–,–
CC1CCN(C(=O)Oc2c(Cl)cc(Cl)c3cccnc23)CC1,–,–,–,-0.295,-0.26,-0.868
CC(C)=N/N=C(\N)N[N+](=O)[O-],0.242,-0.316,-0.109,–,–,–
CN(C)C(=O)c1c([N+](=O)[O-])cc([N+](=O)[O-])cc1[N+](=O)[O-],0.303,0.8,-0.663,–,–,–
CN(C)C(=O)OCCc1n(C)cc[n+]1C,0.319,-0.311,-0.496,–,–,–
CCN(CC)CC(O)COC(=O)C(O)(c1ccccc1)C1CCCCC1 (stereo not given),-0.383,-0.233,0.157,–,–,–
COc1ccc(C2=NCC(CBr)S2)cc1 (stereo not given),-0.129,-0.241,0.329,–,–,–
COc1ccc(OP(C)(=O)Nc2ccc(Br)cc2)cc1 (stereo not given),-1.95,-0.107,0.585,–,–,–
Cc1ccc(NP(=O)(Oc2ccccc2)Oc2ccccc2)nc1,1.35,-0.37,-0.299,–,–,–
CP(=O)(Oc1ccccc1)N1CCOC1=O (stereo not given),1.23,-0.226,-0.45,–,–,–
O=[N+]([O-])c1cc([N+](=O)[O-])c(CCNc2ccccc2)c([N+](=O)[O-])c1,-0.0498,-0.0466,0.181,–,–,–
CCc1nc2c(n1)c1c(non1O)c1c2no[n+]1[O-],0.289,1.74,-1.09,–,–,–
CCc1ccc(OP(C)(=O)Nc2cccnc2)cc1 (stereo not given),0.0995,-0.317,0.227,–,–,–

SMILES,z-score [1],z-score [2],z-score [3],z-score [4],z-score [5],z-score [6]
COc1ccccc1OP(C)(=O)Nc1c(C)n(C)n(-c2ccccc2)c1=O (stereo not given),1.61,-0.55,-0.615,–,–,–
CC(=O)N1C2C3N(C(C)=O)C1C1N(C(C)=O)C(C(N1C(C)=O)N3C(C)=O)N2C(C)=O,0.727,-0.226,-0.56,–,–,–
O=[N+]([O-])c1cccc2n[nH]nc12,–,–,–,-1.1,-0.114,0.362
O=C(OCCCN1CCCC1)C(O)(c1ccccc1)C1CCCCC1 (stereo not given),0.416,-0.145,0.0393,–,–,–
Oc1ccccc1CNc1ccccn1,0.533,-0.18,0.00642,–,–,–
Cc1c2non([O-])c-2c(C)[n+](=O)[n+]1[O-],-3.42,3.61,-0.963,–,–,–
O=C(NC(Sc1ccncn1)C(Cl)(Cl)Cl)c1ccccc1 (stereo not given),-0.971,-0.238,-0.0532,–,–,–
O=[N+]([O-])c1cc([N+](=O)[O-])c(Nc2ccccn2)c([N+](=O)[O-])c1,0.791,-0.0412,-0.469,–,–,–
CC(C)CC(=O)NC(Sc1ccc(Cl)cc1)C(Cl)(Cl)Cl (stereo not given),0.472,0.201,-0.614,–,–,–
Nc1cc(N)c2nonc2c1[N+](=O)[O-],-1.05,0.288,0.751,–,–,–
Cc1c(NP(C)(=O)Oc2ccc(C(C)C)cc2)c(=O)n(-c2ccccc2)n1C (stereo not given),–,–,–,-0.854,-0.163,0.499
CCc1ccc(OP(C)(=O)O)cc1,–,–,–,0.359,-0.247,-0.9
CP(=O)(Nc1ccccn1)Oc1ccccc1 (stereo not given),–,–,–,-0.527,-0.161,0.793
COc1ccccc1OP(C)(=O)Nc1ccc(C)cc1C (stereo not given),-0.611,-0.138,1.32,–,–,–
COc1ccccc1OP(C)(=O)Nc1ccc(Br)cc1 (stereo not given),0.892,-0.224,-0.0444,–,–,–
Cc1ccc(N/C(=N/P(=O)(N2CCOCC2)N2CCOCC2)N2CCOCC2)cc1,-1.2,-0.0132,-0.207,–,–,–
NC(=O)c1cc([N+](=O)[O-])cc([N+](=O)[O-])c1N,0.639,-0.301,-0.389,–,–,–
CN(C)CCOC(=O)C(O)(c1ccccc1)C1CCCC1 (stereo not given),–,–,–,1.12,-0.186,0.255
Clc1ccc(Cl)c(NC2=NCC(CBr)S2)c1 (stereo not given),0.19,-0.29,0.204,–,–,–
CN1CCCC(OC(=O)C(c2ccccc2)c2ccccc2)C1 (stereo not given),–,–,–,-0.0971,-0.216,0.222
COc1ccc(OP(C)(=O)Nc2ccccn2)cc1 (stereo not given),-0.348,-0.307,0.156,–,–,–
